No constants are given. Whether binding was seen depends on the method and setting. In cells and extracts the contact can be indirect. Here binding means that the protein was enriched with, or labelled near, the bait; the list need not be complete. A no says only that the protein was not detected with the bait.
Target: T1, mutant CFTR C-terminal peptide (1471-1480/4G), biotinylated (UniProt P13569)
T1 sequence (peptide, biotinylated (position not stated)): TEEEVQGGGG
Experiment: affinity purification with mass spectrometry

Sequences of proteins named here, by UniProt entry; tags and fusion partners are left off. A change or cut given only in a name is not applied to a line headed by its entry.
UniProt P13569: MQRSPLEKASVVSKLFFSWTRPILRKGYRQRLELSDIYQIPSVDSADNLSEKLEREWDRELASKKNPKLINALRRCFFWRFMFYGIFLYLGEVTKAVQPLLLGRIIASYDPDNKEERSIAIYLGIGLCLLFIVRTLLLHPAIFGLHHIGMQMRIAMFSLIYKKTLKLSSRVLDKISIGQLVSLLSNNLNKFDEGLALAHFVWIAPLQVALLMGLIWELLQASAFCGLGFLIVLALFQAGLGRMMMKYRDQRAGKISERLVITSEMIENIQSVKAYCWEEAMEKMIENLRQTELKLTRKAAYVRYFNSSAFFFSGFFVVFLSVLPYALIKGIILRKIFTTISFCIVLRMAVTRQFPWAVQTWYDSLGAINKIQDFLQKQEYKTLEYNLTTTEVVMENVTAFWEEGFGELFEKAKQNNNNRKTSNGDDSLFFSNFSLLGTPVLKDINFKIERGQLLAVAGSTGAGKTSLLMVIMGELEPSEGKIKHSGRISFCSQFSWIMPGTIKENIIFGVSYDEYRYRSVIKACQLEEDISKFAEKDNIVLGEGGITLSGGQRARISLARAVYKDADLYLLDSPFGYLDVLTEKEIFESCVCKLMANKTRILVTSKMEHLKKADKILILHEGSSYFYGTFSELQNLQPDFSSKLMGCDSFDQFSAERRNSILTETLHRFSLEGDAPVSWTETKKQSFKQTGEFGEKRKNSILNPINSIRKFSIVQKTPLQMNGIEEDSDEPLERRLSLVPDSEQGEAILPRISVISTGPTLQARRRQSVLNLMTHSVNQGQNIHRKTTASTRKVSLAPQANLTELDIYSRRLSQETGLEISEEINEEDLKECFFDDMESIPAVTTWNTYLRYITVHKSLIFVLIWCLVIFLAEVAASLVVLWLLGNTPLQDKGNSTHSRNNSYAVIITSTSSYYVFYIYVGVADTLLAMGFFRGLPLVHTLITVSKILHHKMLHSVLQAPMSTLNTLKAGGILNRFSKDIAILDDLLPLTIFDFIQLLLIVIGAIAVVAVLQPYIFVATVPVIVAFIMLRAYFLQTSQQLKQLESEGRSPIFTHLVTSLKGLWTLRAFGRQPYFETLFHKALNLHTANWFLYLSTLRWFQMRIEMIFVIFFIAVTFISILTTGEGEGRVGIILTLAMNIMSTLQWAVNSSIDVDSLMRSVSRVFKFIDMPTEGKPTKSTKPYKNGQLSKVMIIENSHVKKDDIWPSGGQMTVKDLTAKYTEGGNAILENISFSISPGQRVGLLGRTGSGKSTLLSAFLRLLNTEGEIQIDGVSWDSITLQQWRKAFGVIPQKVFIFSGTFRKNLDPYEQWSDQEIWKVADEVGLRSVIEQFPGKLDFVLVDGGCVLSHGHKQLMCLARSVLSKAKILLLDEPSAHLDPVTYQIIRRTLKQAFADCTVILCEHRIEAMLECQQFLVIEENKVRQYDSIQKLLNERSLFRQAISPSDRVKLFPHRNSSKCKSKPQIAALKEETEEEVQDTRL
UniProt P26040: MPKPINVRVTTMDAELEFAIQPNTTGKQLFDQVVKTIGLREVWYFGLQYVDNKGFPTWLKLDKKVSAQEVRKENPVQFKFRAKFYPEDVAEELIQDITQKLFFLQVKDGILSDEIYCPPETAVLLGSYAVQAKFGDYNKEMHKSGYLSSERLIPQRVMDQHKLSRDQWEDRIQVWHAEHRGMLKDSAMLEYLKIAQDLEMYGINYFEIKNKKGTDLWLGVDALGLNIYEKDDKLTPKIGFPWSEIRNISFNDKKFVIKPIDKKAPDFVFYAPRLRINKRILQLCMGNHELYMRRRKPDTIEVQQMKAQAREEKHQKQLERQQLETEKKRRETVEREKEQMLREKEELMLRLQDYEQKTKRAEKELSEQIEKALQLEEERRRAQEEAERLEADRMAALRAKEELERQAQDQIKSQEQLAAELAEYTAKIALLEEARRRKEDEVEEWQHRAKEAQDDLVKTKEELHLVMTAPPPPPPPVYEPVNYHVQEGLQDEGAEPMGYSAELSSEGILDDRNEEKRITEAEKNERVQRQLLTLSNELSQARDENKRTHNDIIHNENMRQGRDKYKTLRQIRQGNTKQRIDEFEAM

ezrin, mouse kidney (from UniProt P26040 1-586)
binding: no binding
